In the assay the target is FLAG-HA−DBC1 (human) (UniProt Q8N163). Briefly: co-IP; IP from nuclear extract of the FLAG-HA−DBC1 stable cell line, then immunoblotting.

Chains of the proteins cited; added tags and fusions are not shown.
UniProt Q8N163: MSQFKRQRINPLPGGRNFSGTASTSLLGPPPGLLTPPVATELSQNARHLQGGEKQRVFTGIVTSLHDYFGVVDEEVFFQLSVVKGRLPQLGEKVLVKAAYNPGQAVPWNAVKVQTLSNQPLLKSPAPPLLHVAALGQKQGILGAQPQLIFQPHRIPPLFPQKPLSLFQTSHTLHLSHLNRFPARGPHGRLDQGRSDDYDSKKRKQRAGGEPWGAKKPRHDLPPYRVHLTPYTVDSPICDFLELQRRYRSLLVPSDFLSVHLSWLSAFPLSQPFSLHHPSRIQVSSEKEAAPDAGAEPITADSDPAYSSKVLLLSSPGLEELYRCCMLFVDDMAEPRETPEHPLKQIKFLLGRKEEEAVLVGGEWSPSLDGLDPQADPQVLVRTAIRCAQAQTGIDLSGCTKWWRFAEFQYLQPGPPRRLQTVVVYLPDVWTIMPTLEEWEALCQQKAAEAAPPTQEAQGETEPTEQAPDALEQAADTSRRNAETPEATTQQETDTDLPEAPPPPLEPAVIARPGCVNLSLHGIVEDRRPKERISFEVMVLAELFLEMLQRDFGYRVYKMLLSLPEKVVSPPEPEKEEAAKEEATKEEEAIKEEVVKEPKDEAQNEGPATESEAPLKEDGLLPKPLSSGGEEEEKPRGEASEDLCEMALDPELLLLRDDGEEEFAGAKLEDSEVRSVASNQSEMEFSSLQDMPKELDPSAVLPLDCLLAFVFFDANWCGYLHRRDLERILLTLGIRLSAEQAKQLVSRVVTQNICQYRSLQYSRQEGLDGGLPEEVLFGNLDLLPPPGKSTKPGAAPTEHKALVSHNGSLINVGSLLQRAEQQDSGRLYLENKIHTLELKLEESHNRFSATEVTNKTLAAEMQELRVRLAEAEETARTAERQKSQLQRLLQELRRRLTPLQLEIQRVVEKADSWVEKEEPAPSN

These are yes or no findings as the source states them, for the method shown. Binding seen in cells or lysates may run through a third protein. Some entries that bind do so weakly or less than the wild type.

B1: AFF1 (protein, UniProt P51825 1-1210)
chain: MAAQSSLYNDDRNLLRIREKERRNQEAHQEKEAFPEKIPLFGEPYKTAKGDELSSRIQNMLGNYEEVKEFLSTKSHTHRLDASENRLGKPKYPLIPDKGSSIPSSSFHTSVHHQSIHTPASGPLSVGNISHNPKMAQPRTEPMPSLHAKSCGPPDSQHLTQDRLGQEGFGSSHHKKGDRRADGDHCASVTDSAPERELSPLISLPSPVPPLSPIHSNQQTLPRTQGSSKVHGSSNNSKGYCPAKSPKDLAVKVHDKETPQDSLVAPAQPPSQTFPPPSLPSKSVAMQQKPTAYVRPMDGQDQAPSESPELKPLPEDYRQQTFEKTDLKVPAKAKLTKLKMPSQSVEQTYSNEVHCVEEILKEMTHSWPPPLTAIHTPSTAEPSKFPFPTKDSQHVSSVTQNQKQYDTSSKTHSNSQQGTSSMLEDDLQLSDSEDSDSEQTPEKPPSSSAPPSAPQSLPEPVASAHSSSAESESTSDSDSSSDSESESSSSDSEENEPLETPAPEPEPPTTNKWQLDNWLTKVSQPAAPPEGPRSTEPPRRHPESKGSSDSATSQEHSESKDPPPKSSSKAPRAPPEAPHPGKRSCQKSPAQQEPPQRQTVGTKQPKKPVKASARAGSRTSLQGEREPGLLPYGSRDQTSKDKPKVKTKGRPRAAASNEPKPAVPPSSEKKKHKSSLPAPSKALSGPEPAKDNVEDRTPEHFALVPLTESQGPPHSGSGSRTSGCRQAVVVQEDSRKDRLPLPLRDTKLLSPLRDTPPPQSLMVKITLDLLSRIPQPPGKGSRQRKAEDKQPPAGKKHSSEKRSSDSSSKLAKKRKGEAERDCDNKKIRLEKEIKSQSSSSSSSHKESSKTKPSRPSSQSSKKEMLPPPPVSSSSQKPAKPALKRSRREADTCGQDPPKSASSTKSNHKDSSIPKQRRVEGKGSRSSSEHKGSSGDTANPFPVPSLPNGNSKPGKPQVKFDKQQADLHMREAKKMKQKAELMTDRVGKAFKYLEAVLSFIECGIATESESQSSKSAYSVYSETVDLIKFIMSLKSFSDATAPTQEKIFAVLCMRCQSILNMAMFRCKKDIAIKYSRTLNKHFESSSKVAQAPSPCIASTGTPSPLSPMPSPASSVGSQSSAGSVGSSGVAATISTPVTIQNMTSSYVTITSHVLTAFDLWEQAEALTRKNKEFFARLSTNVCTLALNSSLVDLVHYTRQGFQQLQELTKTP
In the case of B1, the binding result is recorded as “binds”.

The values above are taken from publication PMC7104407.
